Test results published in article doi:10.1101/2021.09.01.458501.
No constants are given. Whether binding was seen depends on the method and setting. Binding seen in cells or lysates may run through a third protein. Some entries that bind do so weakly or less than the wild type. One block for each molecule: values may come before it.

The chains behind the UniProt entries cited, without tags or fusion partners.
UniProt P49407: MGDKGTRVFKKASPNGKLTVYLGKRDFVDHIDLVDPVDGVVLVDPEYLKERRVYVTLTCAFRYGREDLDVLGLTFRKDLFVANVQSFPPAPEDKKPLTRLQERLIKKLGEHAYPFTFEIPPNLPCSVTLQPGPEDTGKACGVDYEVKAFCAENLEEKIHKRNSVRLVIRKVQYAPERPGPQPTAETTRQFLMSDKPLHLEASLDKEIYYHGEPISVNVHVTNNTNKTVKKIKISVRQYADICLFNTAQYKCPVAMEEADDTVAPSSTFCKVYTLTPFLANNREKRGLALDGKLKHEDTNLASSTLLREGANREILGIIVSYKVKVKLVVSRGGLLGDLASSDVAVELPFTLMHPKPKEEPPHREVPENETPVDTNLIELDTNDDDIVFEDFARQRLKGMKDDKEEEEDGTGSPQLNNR

Tests used:
[1] = target: T1, nucleolar and coiled-body phosphoprotein 1 (NOLC1), human (human (endogenous in HCT116)) (UniProt Q14978); experiment: co-IP
T1 sequence: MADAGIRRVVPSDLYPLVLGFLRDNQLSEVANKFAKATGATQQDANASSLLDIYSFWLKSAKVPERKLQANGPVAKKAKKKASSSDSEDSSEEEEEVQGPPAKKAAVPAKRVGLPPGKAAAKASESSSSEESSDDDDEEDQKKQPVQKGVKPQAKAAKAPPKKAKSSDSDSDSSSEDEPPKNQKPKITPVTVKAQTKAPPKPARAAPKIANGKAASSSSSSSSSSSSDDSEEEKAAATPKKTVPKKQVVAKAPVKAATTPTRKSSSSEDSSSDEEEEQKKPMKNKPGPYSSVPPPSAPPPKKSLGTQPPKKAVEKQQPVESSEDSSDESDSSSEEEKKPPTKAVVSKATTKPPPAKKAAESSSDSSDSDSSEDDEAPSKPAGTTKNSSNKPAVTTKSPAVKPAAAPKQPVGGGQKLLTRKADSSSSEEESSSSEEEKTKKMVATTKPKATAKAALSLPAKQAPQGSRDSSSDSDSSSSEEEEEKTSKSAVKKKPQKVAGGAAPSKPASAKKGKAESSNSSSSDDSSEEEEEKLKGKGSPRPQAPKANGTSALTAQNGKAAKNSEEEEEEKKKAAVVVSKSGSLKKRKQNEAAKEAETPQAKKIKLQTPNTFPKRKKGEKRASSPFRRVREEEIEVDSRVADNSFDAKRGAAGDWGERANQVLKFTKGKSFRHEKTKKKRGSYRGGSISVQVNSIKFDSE

[2] = target: T2, Fibrillarin, mouse (mouse (endogenous in colorectal cancer tissue)) (UniProt P35550); experiment: co-IP
T2 sequence: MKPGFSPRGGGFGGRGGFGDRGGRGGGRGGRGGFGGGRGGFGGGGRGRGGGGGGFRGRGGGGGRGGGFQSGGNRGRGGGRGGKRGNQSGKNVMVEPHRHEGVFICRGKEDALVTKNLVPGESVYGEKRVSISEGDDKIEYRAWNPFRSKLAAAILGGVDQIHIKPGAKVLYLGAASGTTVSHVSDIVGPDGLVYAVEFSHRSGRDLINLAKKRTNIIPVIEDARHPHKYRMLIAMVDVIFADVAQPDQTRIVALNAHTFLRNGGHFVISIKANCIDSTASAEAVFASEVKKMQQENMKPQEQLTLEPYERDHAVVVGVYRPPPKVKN

binding [1]: binds
Molecule: β-arrestin-1 (from UniProt P49407 1-418)

binding [2]: binds
B1: nucleolar and coiled-body phosphoprotein 1 (NOLC1), mouse (protein, UniProt E9Q5C9 1-702)
chain: MADTGLRRVVPSDLYPLVLRFLRDSQLSEVASKFAKATGATQQDANASSLLDIYSFWLNRSTKAPKVKLQSNGPVTKKAKKETSSSDSSEDSSEDEDKKAQGLPTQKAAAQVKRASVPQHAGKAAAKASESSSSEESSEEEEEDKKKKPVQQKAAKPQAKAVRPPAKKAESSESDSDSDSDSSSEEETPQTQKPKAAVAAKAQTKAEAKPGTPAKAQPKVANGKAAASSSSSSSSDDSEEEKKAAAPPKKTVPKKQVVAKAPVKVAAAPTQKSSSSEDSSSEEEEGQRQPMKKKAGPYSSVPPPSVPLPKKSPGTQAPKKAAAQTQPADSSDDSSDDSDSSSEEEKKPPAKTVVSKTPAKAAPVKKKAESSSDSSDSDSSEDEAPAKPVSTTKSPKPAVTPKPSAAKAVTTPKQPAGSNQKPQSRKADSSSSEEESSSSEEEEASKKSATTPKAKVTAKAAPAKQAPQAAGDSSSDSDSSSSEEEEKTPKPPAKKKAAGGAVSTPAPGKKAEAKSSSSSSSSSSEDSSEEEKKKKPKATTPKIQASKANGTPASLNGKAAKESEEEEEEEETEEKKKAAGTKPGSGKKRKQNETADEATTPQAKKVKLETPNTFPKRKKGERRASSPFRRVREEEIEVDSRVADNSFDAKRGAAGDWGERANQVLKFTKGKSFRHEKTKKKRGSYRGGSISVQVNSVKFDSE
